Measured values from article PMC7819943, “Rice protein-binding microarrays: a tool to detect cis-acting elements near promoter regions in rice”.
The other results are listed elsewhere or left out.

Chains of the proteins cited; added tags and fusions are not shown.
UniProt Q0JBA9, entry or part of it: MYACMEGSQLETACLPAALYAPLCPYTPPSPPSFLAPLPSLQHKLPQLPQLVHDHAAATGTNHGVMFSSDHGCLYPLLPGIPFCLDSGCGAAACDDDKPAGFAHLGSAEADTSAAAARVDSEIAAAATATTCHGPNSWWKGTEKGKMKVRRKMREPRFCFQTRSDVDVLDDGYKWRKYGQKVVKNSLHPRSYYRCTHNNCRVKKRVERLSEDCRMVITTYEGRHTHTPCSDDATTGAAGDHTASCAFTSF

biological target: OsWRKY34 (Oryza sativa, UniProt Q0JBA9 1-250); assay: protein-binding microarray (RPBM); PBS, 2% BSA, 51.3 ng/ul salmon testes DNA, 50 uM zinc acetate, 200 nM TF, 25 C, 1 h; high values mean tight binding; details: protein: recombinant; tags: N-terminal polyhistidine and DsRed monomer fusion (pET32a); label: CyDye5-dUTP incorporated in the synthesized complementary strand; 3' TTTTT single-stranded linker to array surface; dsDNA, one strand shown
How it was run: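 For the binding signal, per-feature fluorescence intensity was read in arbitrary units on an Axon 4000B scanner. Before scanning, a 2% BSA-blocked custom Agilent array made double-stranded with Cy5-dUTP was washed after 1 h at 25 °C with 200 nM protein and 50 µM zinc acetate. The proteins were Ni–NTA-purified transcription factors with N-terminal polyhistidine and DsRed fusions, expressed in E. coli BL21-CodonPlus.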

Sequence	binding signal
TTCCTCTACATTCTACGTCCGGTTGGATTTTGCATGCGATCGGAGTCACCTAGTGCAG	8640 fluorescence intensity (a.u.)
TCTTCCTCATGCGATTTGGTTGGTTGGTTTGACGCTACACCGGAGTCACCTAGTGCAG	13600 fluorescence intensity (a.u.)
CGCTGGAAAATGGGTGGGATTTCGCGAGCTCTCCTGCCTCCGGAGTCACCTAGTGCAG	8960 fluorescence intensity (a.u.)
GATGGGCCACCAAGTCTCGCCCGCTCCCTCGTATAAAAACCGGAGTCACCTAGTGCAG	9780 fluorescence intensity (a.u.)
CCTCGCAATTTACATGGCTCCTACTAGGTTGTGTAGCTGCCGGAGTCACCTAGTGCAG	8180 fluorescence intensity (a.u.)
TGTGTTTGTGTTGGATATTTTTTGAGTAGCGTCCTTTCCACGGAGTCACCTAGTGCAG	12200 fluorescence intensity (a.u.)
TTCGGAAAAGGTCCCGTGGATCTCGTCGCCTCACCCCACTCGGAGTCACCTAGTGCAG	8980 fluorescence intensity (a.u.)
AAGGCTAGAATCTCTCCTTTTCCATTTCCCTCTCCTAATTCGGAGTCACCTAGTGCAG	8380 fluorescence intensity (a.u.)
AGATTGATCCTGAAATTTATCCGCAACCTATTTAAATCCTCGGAGTCACCTAGTGCAG	8420 fluorescence intensity (a.u.)
ACAGCCCTCAATTTTTCATTCCACAGCCACCACGATTTTACGGAGTCACCTAGTGCAG	11900 fluorescence intensity (a.u.)
TTTCTTAGCTCGTGACCAATTTATACTCTATTTTCATGGCCGGAGTCACCTAGTGCAG	8720 fluorescence intensity (a.u.)
GAGAGGAGCATTTTGGCCCTTGGTTTCTTTCGGTTCTTCTCGGAGTCACCTAGTGCAG	9780 fluorescence intensity (a.u.)
CTGTTCCATTTCTCCTTGTTGCATCAGTAACTCCAAACCACGGAGTCACCTAGTGCAG	12200 fluorescence intensity (a.u.)
CATCTGATCGGCATCGGCATCGTCCTCGTCCTCGGCATCACGGAGTCACCTAGTGCAG	9990 fluorescence intensity (a.u.)
TACTACTACTTCTCGGCCGGTATGACGTTCGCCGACGATTCGGAGTCACCTAGTGCAG	11000 fluorescence intensity (a.u.)
ATCATATTCTAGTTCTACATATTCTGGCAATTATTCGTTACGGAGTCACCTAGTGCAG	8260 fluorescence intensity (a.u.)
GATGTATCCGATTTGATTTGACCTGCAGGTGCAAGTATTACGGAGTCACCTAGTGCAG	11700 fluorescence intensity (a.u.)
ATCACATTTCTTATGTCCTGCAATCATAACCTTAACCTTTCGGAGTCACCTAGTGCAG	9180 fluorescence intensity (a.u.)
CTGCGAATGTTGCTGTACAAACCTAACTCATGATCCATTCCGGAGTCACCTAGTGCAG	8500 fluorescence intensity (a.u.)
GCACGTACGTTCAGCTGTAAATGTTCTTTGCTGATTGCTACGGAGTCACCTAGTGCAG	8630 fluorescence intensity (a.u.)
ACTTATTTGTTCTGATATCAGTGGGGTTTCATCGTTCAATCGGAGTCACCTAGTGCAG	14600 fluorescence intensity (a.u.)

Sequence	binding signal
AGCTGTGTGTATTTTATGCAGAGGCCGGGGTGGGCTCGGTCGGAGTCACCTAGTGCAG	10100 fluorescence intensity (a.u.)
ATATATCTATATTTTTCCCCTTGGCCTCTTTTGCCCTTCACGGAGTCACCTAGTGCAG	9200 fluorescence intensity (a.u.)
TATATATATATATATATATATATATATATGATAATTTGTTCGGAGTCACCTAGTGCAG	8670 fluorescence intensity (a.u.)
GTGTATTATTCCACACGTGTTGCACCGGATTGTAATTGAACGGAGTCACCTAGTGCAG	8890 fluorescence intensity (a.u.)
AAGCTTTGGATGACTATCTTTCTCGGTTTAATAAAATTTTCGGAGTCACCTAGTGCAG	10500 fluorescence intensity (a.u.)
CCGCGCCACCTCTGCCTCTTCTTGGTTCCGCCTCAAGAAACGGAGTCACCTAGTGCAG	10900 fluorescence intensity (a.u.)
CACCAACCATTTCTCCTCTACCATTCCCACTATTATCATCCGGAGTCACCTAGTGCAG	12300 fluorescence intensity (a.u.)
GTATTTTATGTTTGACTAAATATTTTTAAATTTTTCATAACGGAGTCACCTAGTGCAG	8480 fluorescence intensity (a.u.)
CATTAGTCACACGCACTCACACCAACATTCACACAAATTCCGGAGTCACCTAGTGCAG	9940 fluorescence intensity (a.u.)
GATCATGTGTGGAGTTGATTGTCCAATGTGTGGAGTTGTTCGGAGTCACCTAGTGCAG	9900 fluorescence intensity (a.u.)
CTCCTCCCGAGCACGTGCTATGATTTTTTTCTAACAATTTCGGAGTCACCTAGTGCAG	8460 fluorescence intensity (a.u.)
CCTGTGCTGCTGGTTTGTGTGTGTGTGCCTGTGTAGTACACGGAGTCACCTAGTGCAG	8300 fluorescence intensity (a.u.)
TTCCTCCGTTTTTTTTATTCCTGCAACTAAAAGGTATTCTCGGAGTCACCTAGTGCAG	8860 fluorescence intensity (a.u.)
CACCGTCGTCATGGCATCTTCTCCAGCTATATAACCATCCCGGAGTCACCTAGTGCAG	9720 fluorescence intensity (a.u.)
AGAATCCGAATCCGTATCGTTCTCGGACATGTCAAGCTTTCGGAGTCACCTAGTGCAG	11200 fluorescence intensity (a.u.)
CACCACATCTTTTTTTGCCCTCATCACTACCCCTCAGGCTCGGAGTCACCTAGTGCAG	8110 fluorescence intensity (a.u.)
CTCTCTCATCCTTCTCTCATGGCTAGTGACTGTGGGGTTCCGGAGTCACCTAGTGCAG	11100 fluorescence intensity (a.u.)
CTCCACCGCTTTTGCACCGTATACCATTCGCCCAAGTCTGCGGAGTCACCTAGTGCAG	8220 fluorescence intensity (a.u.)
ATTGAATGGTTAGGGTTACACAATTGCTTTATATACTCTACGGAGTCACCTAGTGCAG	8820 fluorescence intensity (a.u.)
CATCTTGTAATTTTCTGTCGAACTGTGTAGTTGGTTTTTTCGGAGTCACCTAGTGCAG	8820 fluorescence intensity (a.u.)
AGTAGGAGGGTGGGTATTTGCAACAAAATGACTTATGAGGCGGAGTCACCTAGTGCAG	12800 fluorescence intensity (a.u.)

Some values from the results shown.
binding signal with CCTGTGCTGCTGGTTTGTGTGTGTGTGCCTGTGTAGTACACGGAGTCACCTAGTGCAG is entered as 8300 fluorescence intensity (a.u.)
binding signal with CTCCACCGCTTTTGCACCGTATACCATTCGCCCAAGTCTGCGGAGTCACCTAGTGCAG is entered as 8220 fluorescence intensity (a.u.)
binding signal with CACCAACCATTTCTCCTCTACCATTCCCACTATTATCATCCGGAGTCACCTAGTGCAG is entered as 12300 fluorescence intensity (a.u.)
binding signal with CTCTCTCATCCTTCTCTCATGGCTAGTGACTGTGGGGTTCCGGAGTCACCTAGTGCAG is entered as 11100 fluorescence intensity (a.u.)
binding signal with GATCATGTGTGGAGTTGATTGTCCAATGTGTGGAGTTGTTCGGAGTCACCTAGTGCAG is entered as 9900 fluorescence intensity (a.u.)

(continued)

Sequence	binding signal
TCGTACACCCCTTCACCGTACGGTTCTCTTCCCCGAATCGCGGAGTCACCTAGTGCAG	8940 fluorescence intensity (a.u.)
TCCCCTATTTCCACTCTCGCCACCACCACTCCGCGACAAGCGGAGTCACCTAGTGCAG	10300 fluorescence intensity (a.u.)
GATTTTCTTGTTTTTGCATATAACCTAGGTCTATTTTCTTCGGAGTCACCTAGTGCAG	13800 fluorescence intensity (a.u.)
CATCTGTCCATCTTCTCCACCACCACTAGCATTCTTCTTCCGGAGTCACCTAGTGCAG	11000 fluorescence intensity (a.u.)
ATATATACGTCTGTTTGATTAATTTTTTCATGAACTTTCTCGGAGTCACCTAGTGCAG	8560 fluorescence intensity (a.u.)
ATTCATCTCTCGCCAGTATATAAGCACACCTGATCCTGTACGGAGTCACCTAGTGCAG	8440 fluorescence intensity (a.u.)
CGTCTCTTTTACCTCAGTCTCGCGTATATCCTAATACCAACGGAGTCACCTAGTGCAG	10200 fluorescence intensity (a.u.)
CGGACGCGACGGCTCAACCGCTTTGACCCACCTGTCAGTCCGGAGTCACCTAGTGCAG	8880 fluorescence intensity (a.u.)
GCAAACCCTAACCTAACCCTAGCCCGCCCAGCGGCGGCGCCGGAGTCACCTAGTGCAG	8130 fluorescence intensity (a.u.)
ATCCTTATACACAACCTAGCTTAATTAGCTCTCTCACCATCGGAGTCACCTAGTGCAG	9020 fluorescence intensity (a.u.)
TTCTGCGTCTTTTTCTGGCTTGTGGTGTCTAAGGTGCCATCGGAGTCACCTAGTGCAG	8250 fluorescence intensity (a.u.)
GCAGCTCTACTGTTTTCCGCTTCCATCTTCTTCCTTTCTTCGGAGTCACCTAGTGCAG	16700 fluorescence intensity (a.u.)
ACATTTTAATTTGTAGGGAGAGGTACTATGGGCTTAACTTCGGAGTCACCTAGTGCAG	9750 fluorescence intensity (a.u.)
TTTGTTCTCTTTTATATGTAACACTTGCATATTTACCTTCCGGAGTCACCTAGTGCAG	8980 fluorescence intensity (a.u.)
GTCATCTGATTGTCGTCCATTGTCTCAGTGTCTGTCTGTCCGGAGTCACCTAGTGCAG	10600 fluorescence intensity (a.u.)
GTGCTTACCTTGTGCCTTGTCCGAGCTGTTGGTGGCTTCGCGGAGTCACCTAGTGCAG	9900 fluorescence intensity (a.u.)
GAAAAATATTGTTTCTCTCACCGACGCCCTTGATTCTTTCCGGAGTCACCTAGTGCAG	12500 fluorescence intensity (a.u.)
TCGTTCTTCATGGTTGGGGCTGATTAGGTTGATGAGATAGCGGAGTCACCTAGTGCAG	11500 fluorescence intensity (a.u.)
ATATTTTTTTTCATCATAGTTTATTTTGCAGCCTCTGTTTCGGAGTCACCTAGTGCAG	9330 fluorescence intensity (a.u.)
AGATAAGTGATGTGGTTGATACAGACAGTGGGGTGCATATCGGAGTCACCTAGTGCAG	9080 fluorescence intensity (a.u.)
AAGAGGGTTTACCTTTTTTCGATTTTTTTTGCTATGCATACGGAGTCACCTAGTGCAG	8320 fluorescence intensity (a.u.)

Sequence	binding signal
CCATGCATCCCAAGTCATCACTGCTGTTCTTCCTCATGATCGGAGTCACCTAGTGCAG	9940 fluorescence intensity (a.u.)
GTGTAGTTTTTTTTTCTTCATTAGTTCAGTTGTACGCACGCGGAGTCACCTAGTGCAG	8370 fluorescence intensity (a.u.)
CCCCACATGCGCTGCCTCACCACTCTCACTGACGGGTGGACGGAGTCACCTAGTGCAG	8640 fluorescence intensity (a.u.)
CGCCACTTCACCCTTGTTTTTTTTTTCCCCTTCTCGCAAACGGAGTCACCTAGTGCAG	11000 fluorescence intensity (a.u.)
CTCTTCTTCTTCTTCTTCTACTTGAGTAGACAGCCACCACCGGAGTCACCTAGTGCAG	8910 fluorescence intensity (a.u.)
TTTGGTTTCTCTAGTTCACTACCTTTCTGAAAACCACCGCCGGAGTCACCTAGTGCAG	8740 fluorescence intensity (a.u.)
CCCGGCCTTAGCATACTATTATTTTAGCACTAATCTTAACCGGAGTCACCTAGTGCAG	9300 fluorescence intensity (a.u.)
TTTTCGTTGTGTGGAGGTGCTGATTTGCTTGGTTTGAAGACGGAGTCACCTAGTGCAG	9930 fluorescence intensity (a.u.)
ATATAAACCCTTGTTTTGTTCCGGCGGGGCGGGAGGCGATCGGAGTCACCTAGTGCAG	16400 fluorescence intensity (a.u.)
TTGTCCAACCCGAGACCCCTAATTCCCCGCCGCGAAATCCCGGAGTCACCTAGTGCAG	8280 fluorescence intensity (a.u.)
ATAAGATATTTTTGACTTTGGTCAAAGTCAAATTGTTTCACGGAGTCACCTAGTGCAG	15300 fluorescence intensity (a.u.)
TCTGTACCTGTACATCTGTAGCTGTCTGAATGGCCGACTTCGGAGTCACCTAGTGCAG	8130 fluorescence intensity (a.u.)
CTCGTCTCGTCTCGTCGCCTCGCCTCGCGAGTTCGCCCGCCGGAGTCACCTAGTGCAG	8940 fluorescence intensity (a.u.)
AAGTTAATTCCACCCTCCACTCCTCCATGTTCTTCTACTACGGAGTCACCTAGTGCAG	9490 fluorescence intensity (a.u.)
ATCATCACACACACTCTCTCAATCGCTTTCTCTCTCTTCTCGGAGTCACCTAGTGCAG	10200 fluorescence intensity (a.u.)
ATTCTGCCGGTTGCTTTTGCTGTCTTGGTCATCGCTTCGGCGGAGTCACCTAGTGCAG	9170 fluorescence intensity (a.u.)
CTCCAACCACCTCTCCGGTCGCCGTCAATCCTCGCCACACCGGAGTCACCTAGTGCAG	9600 fluorescence intensity (a.u.)
ACTCGCTAGTCGCTACCACCAACATTTTCCTTCCGCTCTACGGAGTCACCTAGTGCAG	13500 fluorescence intensity (a.u.)
TTGGTGTTGGATGATGGGTTGTAGTAGTGGTGCGCAAGGGCGGAGTCACCTAGTGCAG	11100 fluorescence intensity (a.u.)
ACCCAATCTCAATTTGCCCTGTTGCCAACCCTAGTGATGACGGAGTCACCTAGTGCAG	8520 fluorescence intensity (a.u.)
GCCCCACTAATCAGCGTTCATTTGTCTACTTAATTTGTTCCGGAGTCACCTAGTGCAG	11000 fluorescence intensity (a.u.)
